Laboratory results reported in PubChem BioAssay AID651640 (Broad Institute, 2012).
Several values for one entry are separate records, joined by “and”; a condition that tells them apart may be missing. Equal entries are not always repeated. The whole screen tested about 350,000 compounds, of which about 6,000 (1.7%) were called active. The shares of active, inactive and inconclusive entries below differ from those in the screen. Cut-off read from the data, not from the text of the source: active = CPE inhibition above about 20% (passing the limit was not always enough); inconclusive = no clear call, values can overlap the other calls; tested in BHK-21 cells. Some compounds were tested as several samples or in several runs, with calls that do not always agree.

Assay: protection of cells from dengue 2 killing – plate reader, single concentration, primary screen (AID 651640);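 note: 0% = median of neutral control wells and 100% = median of positive control wells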
Settings: DENV2-infected cells, cytopathic effect rescue, at 9.99 µM, stronger effect = higher value
For `O=C(NCC(c1ccco1)N1CCCCC1)c1cnc(Cl)c(Cl)c1` (stereo unspecified), the CPE inhibition was inactive: -3.86%. With `C/C(=N\NC(=O)c1nnn(-c2nonc2N)c1CSc1ccc(C)cc1)c1ccco1` the CPE inhibition was inactive: 9.54%. With `CCC(=O)Nc1ccc2c(c1)C(=O)N(C)C[C@H](OC)[C@H](C)CN[C@@H](C)CO2` the CPE inhibition was inactive: -5.06%. For `O=C(C1CCCO1)N1N=C(c2ccc(Br)cc2)CC1c1ccco1` (stereo unspecified), the CPE inhibition was inconclusive: 41.5%. With `COc1ccc(NC(=O)N[C@H]2CC[C@@H](CCNS(=O)(=O)c3cccc(Cl)c3)O[C@H]2CO)cc1` the CPE inhibition was inconclusive: 33.7%. In the case of `Cc1oc2cc3oc(=O)ccc3cc2c1C`, the CPE inhibition is reported as inconclusive: 29.3%. With `COc1cc(OC)c(C(=O)N/N=C/c2ccoc2)cc1OC` the CPE inhibition was inconclusive: 20%. With `COc1cccc(-c2ccc([C@@H]3[C@@H](CO)N4CCCCN(C(=O)c5ccc(F)cc5)C[C@H]34)cc2)c1` the CPE inhibition was active: 42.8%. For `C[C@H]1CN([C@@H](C)CO)C(=O)c2cc(NS(C)(=O)=O)ccc2O[C@H]1CN(C)C(=O)Nc1ccccc1`, the CPE inhibition was inactive: -2.49%. With `Cn1c(N)c(C(=O)COC(=O)/C=C/c2cccc(Cl)c2)c(=O)n(C)c1=O` the CPE inhibition was inconclusive: 59.3%. With `C[C@@H]1CN([C@@H](C)CO)C(=O)Cc2cc(NC(=O)Nc3cccc4ccccc34)ccc2O[C@@H]1CN(C)C(=O)Nc1cccc2ccccc12` the CPE inhibition was inactive: -4.22%. For `Cc1nc2[nH]c(=S)n(C)c(=O)c2nc1C`, the CPE inhibition was inactive: 5.61%. For `CN(C)C(=O)c1cccc(-c2ccc3c(c2)[C@H]2[C@H](CCN2C(=O)c2cccnc2)[C@@H](CO)N3)c1`, the CPE inhibition was active: 31.1%. For `O=C(NCC(O)c1ccccc1)c1ccccc1` (stereo unspecified), the CPE inhibition was inactive: 5.29%. For `C[C@H]1CN([C@@H](C)CO)C(=O)c2ccccc2-c2ccccc2CO[C@@H]1CN(C)Cc1cccnc1`, the CPE inhibition was inactive: 4.08%. With `C[C@@H]1CCCCO[C@@H](CN(C)C(=O)Nc2ccc3c(c2)OCO3)[C@H](C)CN([C@@H](C)CO)C(=O)c2cc(NC(=O)Nc3ccc(F)cc3)ccc2O1` the CPE inhibition was inactive: -2.19%. For `COc1ccccc1-c1ccc2n(c1=O)C[C@H]1[C@H](CO)[C@@H](C(=O)NC3CCC3)N(C(=O)C3CCC3)[C@@H]21`, the CPE inhibition was inactive: -7.75%. In the case of `Cc1cc(C)c(C(=O)NCCCN2CCOCC2)c(C)c1`, the CPE inhibition is reported as inconclusive: 20.8%. In the case of `C[C@@H]1CN([C@@H](C)CO)C(=O)c2cc(NC(=O)Nc3ccc(C(F)(F)F)cc3)ccc2O[C@@H](C)CCCCO[C@H]1CN(C)Cc1ccc2c(c1)OCO2`, the CPE inhibition is reported as inactive: -27.9%. With `O=C(C[C@@H]1CC[C@@H]2[C@H](COC[C@H](O)CN2Cc2cccc(Cl)c2)O1)Nc1nccs1` the CPE inhibition was inactive: -5.68%. In the case of `COc1ccc2c3c(n(C)c2c1)[C@H](CO)N(C(C)=O)CC31CN(C(=O)NC(C)C)C1`, the CPE inhibition is reported as inconclusive: 24.4%. For `NCC[C@H]1CC[C@H](NC(=O)C2CCCC2)[C@@H](CO)O1`, the CPE inhibition was inactive: -0.438%. In the case of `CCOC(=O)C1=C(C)NC(=O)C(C#N)C1c1ccncc1` (stereo unspecified), the CPE inhibition is reported as active: 36.2%. For `C[C@H](CO)N1C[C@H](C)[C@H](CN(C)C(=O)Nc2ccc(F)cc2)OCc2ccccc2-c2c(n(C)c3ccccc23)C1=O`, the CPE inhibition was active: 73.4%. With `Cc1onc(-c2ccccc2Cl)c1C(=O)OCC(=O)c1ccc[nH]1` the CPE inhibition was inconclusive: 25.3%. With `CC(C)[C@H](NC(=O)N1CCn2c1nc1ccccc12)C(=O)N[C@@H](Cc1ccccc1)C(=O)O` the CPE inhibition was inconclusive: 68.6%. For `COc1cccc(-c2ccc(CC[C@H]3O[C@H]4CC[C@@H](CO)O[C@H]4C[C@@H]3NC(=O)c3cnccn3)cc2)c1`, the CPE inhibition was inconclusive: 28.4%. In the case of `c1ccc2sc(-c3ccncc3)nc2c1`, the CPE inhibition is reported as inconclusive: 24.6%. With `Cc1noc(C)c1S(=O)(=O)N(C)C[C@@H]1OCCCC[C@H](C)Oc2ccc(NC(=O)Nc3ccc4c(c3)OCO4)cc2C(=O)N([C@H](C)CO)C[C@H]1C` the CPE inhibition was active: 27.1%. For `Cc1c(C)n(CCN(C)C)c2ccc(C(=O)OCCN(C)C)cc12`, the CPE inhibition was inactive: 19.5%. For `COc1ccc(N2C(=O)C3CCCN3C2c2cccc(Br)c2)cc1` (stereo unspecified), the CPE inhibition was inconclusive: 20.6%. With `Brc1ccc2c(c1)OCCOCCOCCOCCOCCO2` the CPE inhibition was inconclusive: 30.8%. For `CC(=O)C1=C(C)NC(=S)NC1c1cc([N+](=O)[O-])ccc1O` (stereo unspecified), the CPE inhibition was inconclusive: 36.5%. With `O=C(N/N=C/c1ccc(Cl)cc1Cl)c1ccc2nc[nH]c2c1` the CPE inhibition was inactive: -4.1%. With `C[C@H](CO)N1C[C@H](C)[C@H](CN(C)C(=O)c2ccccc2)Oc2ncc(C#C[C@@H](C)O)cc2C1=O` the CPE inhibition was inconclusive: 68.8%. In the case of `COc1cc(C(=O)NCc2nnc(SCC(=O)c3ccc(Cl)cc3)o2)cc(OC)c1OC`, the CPE inhibition is reported as inconclusive: 27.6%. In the case of `COc1cc(CC(=O)OCC(=O)Nc2ccc(N(C)C)cc2)cc(OC)c1OC`, the CPE inhibition is reported as inconclusive: 40.1%. In the case of `N#CC(=C1NC(=O)c2ccccc21)c1nc2ccccc2n1CCO`, the CPE inhibition is reported as inconclusive: 24.6%. With `CC(Oc1cc2oc(=O)c3c(c2cc1Cl)CCC3)C(=O)N1C[C@H]2C[C@@H](C1)c1cccc(=O)n1C2` (stereo partly specified) the CPE inhibition was inconclusive: 26.8%. In the case of `COc1ccc(NC(=O)CN(C)S(=O)(=O)c2ccc3c(c2)CCCN3C(C)=O)cc1`, the CPE inhibition is reported as inconclusive: 21.8%. For `O=C(Cc1ccc(F)cc1)Nc1nc(-c2ccc(F)c(F)c2)cs1`, the CPE inhibition was inconclusive: 22.4%. For `O=C(C[C@@H]1C[C@H]2c3cc(NC(=O)NC4CCCC4)ccc3O[C@H]2[C@@H](CO)O1)NCc1cccnc1`, the CPE inhibition was inconclusive: 30.3%. With `CCNC(=O)C1(C)CCCN(C(=O)CCc2cccs2)C1` (stereo unspecified) the CPE inhibition was inconclusive: 54.7%. In the case of `O=C(C[C@H]1CC[C@@H]2[C@H](COC[C@H](O)CN2CC2CCCCC2)O1)NCC1CC1`, the CPE inhibition is reported as active: 29.5%. For `C[C@@H]1CN([C@H](C)CO)C(=O)c2cc(Br)cnc2O[C@@H]1CN(C)C(=O)Cc1ccccc1`, the CPE inhibition was inconclusive: 58.5%. In the case of `Clc1ccc2nc(C3CCCCC3)c(CC3CCCCC3)n2c1`, the CPE inhibition is reported as active: 38.2%. In the case of `CCOC(=O)Cn1c(=O)oc2cc(S(=O)(=O)N3CCn4c3nc3ccccc34)ccc21`, the CPE inhibition is reported as inconclusive: 25.9%. With `Cc1cccc(C)c1NC(=S)NC1CCCCC1` the CPE inhibition was active: 68.2%. With `CN1CCN(CCOCCOc2ccc(Br)cc2Cl)CC1` the CPE inhibition was inconclusive: 24.3%. In the case of `COc1ccc(NC(=O)Nc2ccc3c(c2)[C@@H]2C[C@@H](CC(=O)N4CCCCC4)O[C@@H](CO)[C@@H]2O3)cc1`, the CPE inhibition is reported as inactive: 2.58%. In the case of `COC1CCN(C(=O)C2CCC(=O)N(CCc3cccc(F)c3)C2)CC1` (stereo unspecified), the CPE inhibition is reported as inconclusive: 31.4%. For `O=S(=O)(c1ccc(F)cc1)N1CCCCN2[C@H](CO)[C@@H](c3ccc(-c4ccccc4)cc3)[C@H]2C1`, the CPE inhibition was inactive: 5.44%. With `Cc1ccc(S(=O)(=O)N2C[C@H](O)COC[C@H]3O[C@@H](CC(=O)NCc4ccc(Cl)c(Cl)c4)CC[C@@H]32)cc1` the CPE inhibition was inconclusive: 30%. With `CO[C@@H]1CN(C)C(=O)c2ccc(NS(=O)(=O)c3ccccc3C)cc2OC[C@@H](C)N(C)C[C@H]1C` the CPE inhibition was inactive: 8.1%. With `CCCc1cn(CC[C@@H]2CC[C@@H](NC(=O)Nc3ccc4c(c3)OCO4)[C@@H](CO)O2)nn1` the CPE inhibition was inactive: 7.69%. In the case of `Cc1ccc(/C=C/C(=O)OCC(=O)NCc2ccc(Cl)cc2)o1`, the CPE inhibition is reported as inconclusive: 31.6%. With `O=C(C[C@H]1C[C@H]2c3cc(NC(=O)Nc4ccccc4F)ccc3O[C@H]2[C@H](CO)O1)NC1CCCC1` the CPE inhibition was active: 20.2%. In the case of `C=CCC[C@@H](Cc1ccc(F)cc1)C(=O)OC[C@@H]1CCCN1C(=O)[C@@H](CC=C)CC(=O)N[C@@H](CO)Cc1ccccc1`, the CPE inhibition is reported as inconclusive: 52.8%. In the case of `CC(C)C[C@@H](CN1CCCC1CN1C(=S)NC[C@@H]1Cc1ccc(O)cc1)N1C[C@H](Cc2ccccc2)N(CC2CCCCCC2)C1=S` (stereo partly specified), the CPE inhibition is reported as inactive: -10.4%. In the case of `CO[C@@H]1CN(C)C(=O)c2ccc(NC(=O)Nc3ccccc3F)cc2OC[C@@H](C)N(S(=O)(=O)CC(F)(F)F)C[C@H]1C`, the CPE inhibition is reported as inactive: 15.6%. With `C[C@H]1CN([C@@H](C)CO)C(=O)c2cc(NC(=O)NC3CCCCC3)ccc2O[C@@H]1CN(C)Cc1ccc(-c2ccccc2)cc1` the CPE inhibition was inconclusive: 33.7%. With `c1ccc(-c2ccc(C3[C@@H]4CN(Cc5cccnc5)C[C@H]3N4)cc2)cc1` (stereo partly specified) the CPE inhibition was inactive: -24.3% and inconclusive: 29.4%. With `CCCC(=O)Nc1ccc2c(c1)OC[C@@H](C)N(CC1CCCC1)C[C@H](C)[C@@H](OC)CN(C)C2=O` the CPE inhibition was inactive: -5.76%. In the case of `O=C(CC[C@H]1O[C@@H](n2cnc3c(NC(=O)c4ccccc4)ncnc32)[C@H](O)[C@@H]1O)NCc1cccc2ccccc12`, the CPE inhibition is reported as inconclusive: 20.4%. For `CCS(=O)(=O)Nc1ccc2c(c1)C(=O)N(C)C[C@H](OC)[C@@H](C)CN(C)[C@H](C)CO2`, the CPE inhibition was inactive: -9.64%. In the case of `C[C@H](CO)N1C[C@H](C)[C@@H](CN(C)S(=O)(=O)c2cn(C)cn2)OCCCC[C@H](C)Oc2ccc(NC(=O)c3ccccc3)cc2C1=O`, the CPE inhibition is reported as inactive: -3.27%. In the case of `Cc1ccc(S(=O)(=O)Nc2ccc3c(c2)CC(=O)N([C@H](C)CO)C[C@H](C)[C@@H](CN(C)S(=O)(=O)c2ccc(Cl)cc2)O3)cc1`, the CPE inhibition is reported as inconclusive: 20.6%. In the case of `O=C(N/N=C/C=C/c1ccccc1[N+](=O)[O-])c1cccs1`, the CPE inhibition is reported as inactive: -3.41%. In the case of `CCOC=C1SC(=S)N(c2ccccc2OC)C1=O`, the CPE inhibition is reported as inactive: -4.69%. In the case of `CC(C)C[C@H](N)C(=O)N1CCC(C(=O)N[C@H](C(=O)NCc2ccc(F)cc2)C(C)C)CC1`, the CPE inhibition is reported as inconclusive: 22.7%. For `O=C(O)c1ccc(Cn2cnc3c(=O)[nH]cnc32)cc1`, the CPE inhibition was inconclusive: 22.7%.
